Source: PubChem BioAssay AID1671190 (National Center for Advancing Translational Sciences (NCATS), 2021)
“And” between values parts separate entries of the source, which are not always exact repeats. Equal values may be shown once. The whole screen tested about 580,000 compounds, of which about 6,100 (1.1%) were called active. Inconclusive means that the source gave no clear call. Such entries were picked first, then a sample of the others. Calls follow the shape of the dose curve; as a rule, active = well fitted inhibition curve with a large enough effect; inconclusive = small, poorly fitted or top-dose-only effect, or another doubt; inactive = no such curve, though single readings can be large or run the other way. Potencies of inconclusive entries are doubtful fits and often do not repeat.

The chains behind the UniProt entries cited, without tags or fusion partners. Where a name states a change or a piece, a line headed by the entry shows the natural chain unless it says otherwise.
UniProt P18054: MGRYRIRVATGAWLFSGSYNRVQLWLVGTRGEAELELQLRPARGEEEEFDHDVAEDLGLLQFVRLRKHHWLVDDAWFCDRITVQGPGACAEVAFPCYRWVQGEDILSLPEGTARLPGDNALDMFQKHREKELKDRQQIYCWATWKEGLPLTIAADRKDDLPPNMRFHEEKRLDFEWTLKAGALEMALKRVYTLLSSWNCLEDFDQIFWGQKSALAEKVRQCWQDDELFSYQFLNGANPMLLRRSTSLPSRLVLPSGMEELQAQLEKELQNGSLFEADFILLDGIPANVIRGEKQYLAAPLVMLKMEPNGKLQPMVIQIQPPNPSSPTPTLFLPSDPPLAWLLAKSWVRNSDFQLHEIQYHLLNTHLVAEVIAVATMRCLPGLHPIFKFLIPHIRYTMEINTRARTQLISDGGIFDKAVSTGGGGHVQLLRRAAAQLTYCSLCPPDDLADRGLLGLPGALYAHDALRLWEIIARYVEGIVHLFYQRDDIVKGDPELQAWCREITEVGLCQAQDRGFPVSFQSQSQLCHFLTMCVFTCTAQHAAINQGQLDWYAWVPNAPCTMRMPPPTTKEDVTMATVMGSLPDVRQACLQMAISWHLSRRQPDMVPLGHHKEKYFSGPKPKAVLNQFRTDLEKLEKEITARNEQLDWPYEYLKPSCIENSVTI

Molecular target: Polyunsaturated fatty acid lipoxygenase ALOX12 (Homo sapiens) (UniProt P18054)
Test: Primary qHTS assay for inhibitors of human arachidonate 12S-lipoxygenase (ALOX12): Round 2
Conditions: purified 12hLO, xylenol orange hydroperoxide absorbance; activity change, negative = inhibition: at 108 µM (top of the series) unless noted
In short: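 Purified human 12hLO at 150 nM in 25 mM Hepes, 0.01% Triton X-100, pH 7.0, preincubated 15 min at room temperature with compound. Reaction started with 40 uM arachidonic acid, 30 min at room temperature. Hydroperoxide measured by Fe-xylenol orange, 573/405 nm absorbance ratio.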
% is scaled to controls: 0 for no effect and ±100 for the full control effect; potency is read from the fitted curve at half-maximal effect.

SMILES	Potency	activity change, negative = inhibition
COc1ccc(CC(=O)Nc2ccc(-c3nc4ccccc4s3)c(C)c2)cc1OC	inconclusive: 126 µM [inhibitor, partial curve, poor fit]	–
COc1ccccc1C(NC(=O)c1oc2ccc(Br)cc2c1C)c1nccn1C (stereo unspecified)	inconclusive: 44.7 µM [inhibitor, partial curve, poor fit]	–
COc1ccccc1C(=O)N1CCN=C1c1ccccc1	inconclusive: 141 µM [inhibitor, partial curve, poor fit]	–
COC(=O)COc1ccc(C(C2C(=O)CC(C)(C)CC2=O)C2C(=O)CC(C)(C)CC2=O)cc1	inactive	–
Cc1cccc(S(=O)(=O)Nc2nc3ccccc3nc2Nc2ccc(C)c(F)c2)c1	inconclusive: 5.01 µM [inhibitor, full curve, poor fit]	–
Cc1cnc(NC(=O)CSc2nnc(-c3ccc(Cl)cc3Cl)n2N)s1	inconclusive: 56.2 µM [inhibitor, partial curve, poor fit]	–
COc1cc([N+](=O)[O-])ccc1NC(=S)Nn1cnnc1	inconclusive: 44.7 µM [inhibitor, partial curve, poor fit]	–
COCCNC(=O)Nc1ccc2nc(-c3ccco3)c(-c3ccco3)nc2c1	inconclusive: 39.8 µM [inhibitor, partial curve]	–
CCc1oc2ccccc2c1/C=C(/C#N)C(=O)NC1CC1	inconclusive: 2.82 µM [inhibitor, full curve, poor fit]	–
Cc1cc(=O)c(C(=O)N2CCN(S(=O)(=O)c3ccc(F)c(F)c3)CC2)nn1-c1ccccc1F	inactive	–
Cc1sc(NC(=O)c2cc(-c3ccc(Cl)cc3)nc3ccccc23)c(C(N)=O)c1C	inconclusive: 35.5 µM [inhibitor, single point]	–
Cc1ccc(S(=O)(=O)NC(=O)NN2CC3CCCC3C2)cc1 (stereo unspecified)	active: 3.06 µM and inconclusive: 3.98 µM [inhibitor, full curve, poor fit]	–
O=C(c1noc2c1CCCCC2)N1CCN(C(c2ccccc2)c2ccccc2)CC1	–	inconclusive: -35.3% [inhibitor]
Cc1ccc(C(=O)OCCOc2ccc(C#N)cc2)cc1F	inconclusive: 100 µM [inhibitor, single point]	–
Cc1nn(CC(=O)NCc2ccc(F)cc2F)c(=O)c2nc(-c3ccccc3)sc12	inconclusive: 89.1 µM [inhibitor, partial curve, poor fit]	–
OCC1(Cc2ccc(Cl)cc2)CCN(Cc2ccccc2F)CC1	inactive	–
CSc1nn(Cc2ccc(C)cc2)c(N)c1S(=O)(=O)c1ccccc1	inactive	–
Cc1c(C(=O)/C=C/N(C)C)nnn1-c1ccc(Cl)cc1C#N	inconclusive: 44.7 µM [inhibitor, partial curve, poor fit]	–
COc1ccc(OC)c(NC(=O)Cn2c(=O)cc(-c3ccccc3)c3c(C)nn(C)c32)c1	inconclusive: 100 µM [inhibitor, partial curve, poor fit]	–
Brc1cccc(CNCCCn2ccnc2)c1	inconclusive: 35.5 µM [inhibitor, partial curve, poor fit]	–
Cc1ccc(NC2=NCC(=O)N2Cc2ccccc2)c(C)c1	inconclusive: 35.5 µM [inhibitor, single point]	–
S=c1nc2c(n[nH]1)c1ccccc1n2CCc1ccccc1	inconclusive: 15.8 µM [inhibitor, partial curve, poor fit]	–

SMILES	Potency	activity change, negative = inhibition
CCc1ccc(S(=O)(=O)c2nnn3c2nc(Nc2ccc(NC(C)=O)cc2)c2sccc23)cc1	inconclusive: 28.2 µM [inhibitor, single point]	–
CC1(C)Cc2c(c(N3CCOCC3)nc3sc4c(NCc5ccco5)nnnc4c23)CS1	inactive	–
Cc1cccc(N2CCN(C(=O)CS(=O)(=O)Cc3nc(-c4ccccc4C)oc3C)CC2C)c1 (stereo unspecified)	inconclusive: 0.447 µM [inhibitor, full curve, poor fit]	–
Clc1ccc(-c2nc(N3CCCC3)c3ccccc3n2)cc1	inactive	–
Cc1cc(N2CCOCC2)nc2ccc(NC(=S)NC(C)C)cc12	inconclusive: 35.5 µM [inhibitor, partial curve]	–
CCCOc1c(Cl)cc(C(=O)N(Cc2sccc2C)C2CCS(=O)(=O)C2)cc1Cl (stereo unspecified)	inactive	–
O=S(=O)(c1cccs1)N1CCN(Cc2nc3ccccc3s2)CC1	inactive	–
O=C(NCCc1ccc(F)cc1)c1ccc(NS(=O)(=O)c2ccc3[nH]c(=O)[nH]c3c2)cc1	inconclusive: 35.5 µM [inhibitor, partial curve, poor fit]	–
Cc1sc(-n2c(C)ccc2C)c(C#N)c1C	inconclusive: 25.1 µM [inhibitor, full curve, poor fit]	–
CCOc1cc(/C=C/C(=O)O)cc(Cl)c1OC	inactive	–
CCOc1ccc(C(=O)NC(Cc2ccccc2)C(=O)OC)cc1 (stereo unspecified)	inconclusive: 44.7 µM [inhibitor, partial curve, poor fit]	–
O=C(Nc1ccc(Cl)cc1)C(NS(=O)(=O)c1cccs1)c1ccccc1 (stereo unspecified)	inconclusive: 11.2 µM [inhibitor, full curve, poor fit]	–
O=C(O)c1ccc(Cc2ccccc2)o1	inconclusive: 28.2 µM [inhibitor, partial curve, poor fit]	–
O=C(NC1(c2ccccc2)CCC1)c1cnc(-c2ccccc2)nc1	inconclusive: 31.6 µM [inhibitor, single point]	–
COc1cc(NC(=O)CN2C(=O)NC3(CCOCC3)C2=O)cc(OC)c1	inactive	–
COc1ccc(Nc2cc(Cl)ccc2C(=O)O)cn1	inconclusive: 17.8 µM [inhibitor, partial curve, poor fit]	–
CN(C(=O)CCc1c[nH]c2ccccc12)C1CCCC1	inconclusive: 126 µM [inhibitor, single point]	–
Cc1cc(C)cc(CC(=O)N2CCC2(C)C(=O)NS(=O)(=O)c2cccc(OC(F)F)c2)c1 (stereo unspecified)	inconclusive: 100 µM [inhibitor, single point]	–
COC(=O)C1=C(C)N(Cc2cccc(C(F)(F)F)c2)C(=NCc2ccccc2)NC1c1ccc(Cl)cc1 (stereo unspecified)	inconclusive: 89.1 µM [inhibitor, partial curve, poor fit]	–
COc1ccc(S(=O)(=O)N2CC(O)C[C@H]2C(=O)OCC(=O)N2CCCCCC2)cc1 (stereo partly specified)	inactive	–
CCOC(=O)c1cnc(-n2nc(C)cc2C)nc1NC1CCCCC1	inconclusive: 50.1 µM [inhibitor, partial curve, poor fit]	–
C/C(CC(=O)N1CCN(C=O)CC1)=N\NC(=O)c1cc2ccccc2cc1O	inconclusive: 39.8 µM [inhibitor, partial curve, poor fit]	–

Shown as labelled records: three of the compounds above.
Cc1cccc(N2CCN(C(=O)CS(=O)(=O)Cc3nc(-c4ccccc4C)oc3C)CC2C)c1 (stereo unspecified)
  Potency: inconclusive: 0.447 µM [inhibitor, full curve, poor fit]
Cc1sc(-n2c(C)ccc2C)c(C#N)c1C
  Potency: inconclusive: 25.1 µM [inhibitor, full curve, poor fit]
Cc1cc(C)cc(CC(=O)N2CCC2(C)C(=O)NS(=O)(=O)c2cccc(OC(F)F)c2)c1 (stereo unspecified)
  Potency: inconclusive: 100 µM [inhibitor, single point]

Next results

SMILES	Potency	activity change, negative = inhibition
COC(=O)CSCc1nc2ccccc2[nH]c1=O	inconclusive: 0.447 µM [inhibitor, full curve, poor fit]	–
CC(=O)Nc1ccc(Oc2ccc3nnc(-c4ccc(Br)cc4)n3n2)cc1	inactive	–
Cc1ccc(-n2c(Cc3ccccc3)nnc2SCc2nc(-c3cccs3)no2)cc1C	inactive	–
CC1(C)c2ssc(=S)c2-c2ccccc2N1C(=O)c1ccco1	inactive	–
CC(C)OC(=O)CC(=O)CSc1nc2c(c(-c3cccs3)c1C#N)CCC2	inactive	–
COC(=O)c1c(NC(=O)C2CCCCC2)sc(C(=O)N2CCOCC2)c1C	inactive	–
COc1ccc(OC)c2nc(-c3ccc4c(c3)OCO4)ccc12	inconclusive: 35.5 µM [inhibitor, partial curve, poor fit]	–
Cc1ccccc1C(=O)N1CCC(N2CCCNC2=O)CC1	inactive	–
CC(C)(C)c1ccc(O)c(NC(=O)c2n[nH]c(=O)c3ccccc23)c1	inconclusive: 79.4 µM [inhibitor, single point]	–
CCCCNC(C(=O)Nc1ccc(Cl)c([N+](=O)[O-])c1)c1ccccc1 (stereo unspecified)	inconclusive: 50.1 µM [inhibitor, partial curve, poor fit]	–
COc1ccc(CCNS(=O)(=O)c2ccc3c(c2)CC(C)N3C(C)=O)cc1OC (stereo unspecified)	inactive	–
Cc1nc(N2CCC(C)CC2)c2oc3ccccc3c2n1	inconclusive: 50.1 µM [inhibitor, single point]	–
CC(NC(=O)Cn1c(NCCO)nc2ccccc21)C1CC2CCC1C2 (stereo unspecified)	inactive	–
O=C(CN1CCOCC1)N/N=C/c1ccc(-c2ccc(Br)cc2)o1	inconclusive: 22.4 µM [inhibitor, partial curve, poor fit]	–
O=[N+]([O-])c1ccc(NC(=S)NCCc2ccc(Cl)cc2)cc1	inconclusive: 39.8 µM [inhibitor, partial curve, poor fit]	–
COc1cc(/C=C2\SC(=O)NC2=O)ccc1Oc1ccc([N+](=O)[O-])cc1[N+](=O)[O-]	inconclusive: 4.47 µM [inhibitor, full curve, poor fit]	–
COc1cccc(CN2CCC3(Cc4ccccc4NC3=O)C2)c1 (stereo unspecified)	active: 39.8 µM	–
CN(C)S(=O)(=O)c1ccc(NC(=S)NC(=O)c2ccc(Br)o2)cc1	inconclusive: 28.2 µM [inhibitor, partial curve, poor fit]	–
CCCCCc1cc(=O)oc2c(C(CCN3CCCC(C)C3)c3ccc4c(c3)OCO4)c(OC)cc(OC)c12 (stereo unspecified)	inconclusive: 89.1 µM [inhibitor, single point]	–
CC(=O)c1ccc(N2CCN(C(=O)c3noc4c3CCc3sccc3-4)CC2)cc1	inactive	–
CN(C)C(=O)C1C2NC(=S)N(c3cccc(Cl)c3)C1(C)Oc1ccc(Cl)cc12 (stereo unspecified)	inconclusive: 15.8 µM [inhibitor, single point]	–
CCSc1cnc(-c2ccccc2)n1CC	inconclusive: 15.8 µM [inhibitor, full curve]	–
